Reference: PubChem BioAssay AID651702 (NMMLSC, 2012)
About 2,400 (0.67%) of roughly 360,000 compounds were called active. This list was built around the results that the source calls inconclusive (neither active nor inactive); the mix of calls is not that of the screen.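 How the source made its calls: active means inhibition above about 55% (limit read from the data); inconclusive means no clear call, values can overlap the other calls; inactive means the rest.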

test: LAMP-1 surface exposure blockers, TALL-104 cells – cell-based, flow cytometry, MLPCN library, primary screen (AID 651702); conditions: TALL-104 LAMP-1 surface exposure, cells stimulated with thapsigargin and PMA; at 10 µM, active compounds read high

inhibition, inactive:
CN1CCC(N2CCN(C3CN(C4CCCC4)S(=O)(=O)C3)CC2)CC1 (stereo unspecified) 1.5%
CN(C(=O)COc1ncnc2sccc12)C1CCCCC1 -3%
O=C(Nc1ccc2c(c1)OCO2)C1CC(=O)N(c2ccc(F)cc2)C1 (stereo unspecified) 8.8%
Cc1csc2ncnc(N3CCN(S(=O)(=O)c4cccc(C(F)(F)F)c4)CC3)c12 1.5%
Cc1ccc(S(=O)(=O)N2CCN(C(=S)NCC3CCCO3)CC2)cc1 (stereo unspecified) -2.1%
Oc1ccc(/C(Cc2ccc3ccccc3n2)=N\Nc2ccccc2)c(O)c1 6.2%
CCOc1ccc2c(c1)/C(=N/N1C(=O)c3ccccc3C1=O)C(=O)N2 8.4%
CN(Cc1ccc(C(C)(C)C)cc1)C(=O)Cc1ccc(S(=O)(=O)N2CCOCC2)s1 21.6%
CCCNC(=O)N(C)C[C@@H]1Oc2ncc(-c3ccncc3)cc2C(=O)N([C@H](C)CO)C[C@@H]1C 5.3%
COc1ccccc1C(=O)Nc1c(C(=O)N2CCN(C)CC2)oc2ccccc12 4.8%
O=C(NC(=S)N1CCN(c2ccccc2)CC1)c1ccc(S(=O)(=O)N2CCOCC2)cc1 4.2%
O=C(/C=C/C(=O)N1CCc2ccccc2C1)N1CCc2ccccc2C1 16.5%
COc1ccc(NC(=O)CSc2nc(O)cc(=O)n2-c2ccc(OC)cc2)cc1 -5.2%
O=C(COC(=O)c1cc(Br)ccc1Cl)NC(=O)NCc1ccccc1 -1.1%
Cc1c(N=Cc2cc(Br)cc(Br)c2O)cccc1C(=O)O 54.6%
Cc1c(N=C2NC(=O)C(CC(=O)Nc3ccccc3)S2)c(=O)n(-c2ccccc2)n1C (stereo unspecified) -1.4%
CC(=O)c1c(C)[nH]c(C(=O)NCc2cccc(Cl)c2)c1C -2.9%
CCOC(=O)N1CCN(C(=O)c2ccc3c(=O)n(Cc4ccc(Cl)cc4)c(=S)[nH]c3c2)CC1 -2.2%
Cc1cc(C)c2c(=O)n(CC(=O)Nc3ccc(Br)c(C)c3)sc2n1 47.5%
O=C(CC1C(=O)NCCN1C(=O)Nc1ccc(F)cc1)Nc1ccc(F)cc1 (stereo unspecified) -3.8%
O=S(=O)(Cc1cccc(F)c1)c1c[nH]c2ccccc12 -0.2%
O=C(NNC(=O)c1ccncc1)Nc1ccc([N+](=O)[O-])cc1 0.7%
CCn1c(Cc2ccccc2)nnc1SCC(=O)Nc1ccccc1N1CCOCC1 0.2%
CC[n+]1c(C)sc2cc(C)ccc21 32.3%
CCOC(=O)C1CSC2(CCC(c3ccccc3)CC2)N1 (stereo unspecified) -1.4%

inhibition, inconclusive:
Cc1ccc(NC(=O)COC(=O)CCNS(=O)(=O)c2c(Cl)cccc2Cl)cc1
O=C1C2C3C=CC(C4CC34)C2C(=O)N1/N=C/c1ccc(-c2ccccc2[N+](=O)[O-])o1 (stereo unspecified)
COC(=O)c1ccc(N2CCN(CC(=O)c3ccc(C)cc3)CC2)c([N+](=O)[O-])c1
CN(C)S(=O)(=O)N(CC(=O)N1CCN(c2ccccc2F)CC1)c1ccccc1
O=C(NCCc1ccccc1)C1CCC(CNS(=O)(=O)c2ccc(F)cc2)CC1 (stereo unspecified)
OC(c1ccc(F)cc1)c1nc(-c2cc3ccccc3o2)cs1 (stereo unspecified)
Cc1ccnc(NC(=O)c2cccc(NC(=O)c3ccc(Cl)cc3)c2)c1
COc1ccc(CC(=O)NCc2nc(-c3ccccc3)no2)cc1
Cc1ccc(C(=O)N/C(=C\c2cccs2)C(=O)N2CCCCCC2)cc1
CCOc1ccc2nc(NC(=O)CN3CCN(C)CC3)sc2c1
CCc1ccc(S(=O)(=O)Nc2c(C)nc3nc[nH]n3c2=O)cc1
O=C1Nc2ccccc2C(O)(C(=O)N2CCCCC2)N1c1ccccc1 (stereo unspecified)
Cc1oc2c(c(C)cc3oc(=O)c(CC(=O)NCCC(=O)O)c(C)c32)c1C
CCCOc1ccc(-c2cnc(SCC(N)=O)nc2N)cc1
COc1ccc(S(=O)(=O)NCCSCc2ccco2)cc1Cl
COc1ccc(-c2noc(CNC(=O)c3ccoc3C)n2)cc1OC
CCNC(=O)C1(C)CCCN(C(=O)c2ccc(F)c(C)c2)C1 (stereo unspecified)
C/C(=N\NC(=O)c1cccc(S(=O)(=O)N2CCOCC2)c1)c1ccco1
Cc1ccc(NC(=O)Cc2nnc(SCC(=O)Nc3nncs3)n2C)cc1
O=C(CNC(=O)c1cccnc1)N/N=C/c1ccc(O)cc1O
Cc1nnsc1C(=O)Nc1ccc(S(=O)(=O)N2CCCCC2)cc1
COc1ccc(C(=O)N/N=C\c2coc3ccc(Cl)cc3c2=O)cc1
COc1ccc(CN(Cc2nc3ccccc3c(=O)[nH]2)C(=O)c2ccco2)cc1
O=C(NNS(=O)(=O)c1ccccc1[N+](=O)[O-])c1ccccc1[N+](=O)[O-]
COc1ccc2[nH]c(=O)c(CN(Cc3ccccc3OC)Cc3nnnn3CC3CCCO3)cc2c1 (stereo unspecified)
CN(Cc1ccccc1F)C(=O)COc1ccc(C(=O)c2ccccc2)cc1
COc1cc(NS(=O)(=O)c2ccc(NC(=O)c3cccs3)cc2)nc(OC)n1
COc1ccc2c(c1)N(C(=O)CSc1n[nH]c(C)n1)C(C)(C)C=C2C
O=C(Cn1ccccc1=O)NCc1ccc(F)cc1
CC(C)(C)OC(=O)N[C@@H](Cc1ccccc1)C(=O)NCC1CCC(C(=O)N[C@@H](CC(=O)O)C(=O)O)CC1 (stereo partly specified)
Cc1cc(/C=C2/SC(=O)N(CC(=O)N3CCCC3)C2=O)c(C)n1C
O=C(CSc1ccccc1C(=O)O)NC1CCCCCC1
COC(=O)CNC(c1ccccc1Cl)c1cc(Br)ccc1NS(=O)(=O)c1ccc(C)cc1 (stereo unspecified)
COc1ccc(CNC(=O)CNC(c2ccccc2)c2ccccc2)cc1OC
CCC1(CC)SC(N)=NC1=O
CCCS(=O)(=O)NC(=O)C1(C)CCCN(C(=O)c2cc(C)on2)C1 (stereo unspecified)
O=c1c2ccccc2c(C=Nc2ccccc2O)c(O)n1-c1nccs1
CCCCNC(=O)NNC(=O)c1ccco1
COc1ccc(N=C(NN)c2ccc3ccccc3n2)cc1
CN(C)Cc1c(C(=O)N/N=C/c2ccccc2OCc2ccc(F)cc2)nnn1-c1nonc1N
CCc1ccccc1NC(=O)C1CCCN1C(=O)Nc1ccc(C)cc1 (stereo unspecified)
Cc1ccc(-c2ccc(=O)n(CC(=O)NCCC(C)C)n2)cc1
Clc1ccccc1Cn1nc(-c2ccccc2)nc1-c1ccccc1
Cc1ccc(C2CC(c3cccs3)=NN2C(=O)CSC2=NCCS2)cc1 (stereo unspecified)
CN(C)c1cc[n+](CC(=O)Nc2ccc(Cl)cc2)cc1
COc1ccc(/C=N/NC(=O)Cn2cnc3ccccc3c2=O)cc1
Cc1ccc(C(=O)NC2CCN(CCCC(=O)c3ccc(F)cc3)CC2)cc1
O=C(O)c1ccccc1-c1cccc2nncn12
COc1ccc(CC(=O)Oc2ccccc2Cl)cc1S(=O)(=O)N1CCOCC1
O=c1c2ccccc2c(=O)n(Cc2ccccc2)n1Cc1ccccc1
CC(=O)c1cc(-c2ccccc2)n(CCC(=O)NC2CCCCC2)c1C
NC(=O)c1cc2ccccc2o/c1=N\NC(=O)c1ccc(F)cc1
CCc1nnc(NC(=O)C2Cc3ccccc3CN2S(=O)(=O)c2cccs2)s1 (stereo unspecified)
COc1ccc(-c2csc3ncn(Cc4ccccc4)c(=O)c23)cc1
O=C(C1CCC(=O)N(C2CCCC2)C1)N1CCN(c2ccccc2Cl)CC1 (stereo unspecified)
COc1ccc(C)cc1S(=O)(=O)N(CC(N)=O)Cc1ccccc1

Some of these compounds in order of molecular weight, low to high:
inhibition, inconclusive:
COc1ccc2c(c1)N(C(=O)CSc1n[nH]c(C)n1)C(C)(C)C=C2C
COc1ccc(CNC(=O)CNC(c2ccccc2)c2ccccc2)cc1OC
Cc1ccc(NC(=O)COC(=O)CCNS(=O)(=O)c2c(Cl)cccc2Cl)cc1

Next part.

inhibition, active:
COc1ccc(-c2csc(/C(C#N)=C\c3ccc(O)c([N+](=O)[O-])c3)n2)cc1OC 93%
CCCCCCCCCCOC(=O)Cn1c(COc2ccccc2C)[n+](C)c2ccccc21 79.8%
Cc1c(C=O)c2cc(OCc3ccccc3)ccc2n1C 69.2%
COc1ccc(C2c3ccc4ccccc4c3Oc3ncn(CCCO)c(=N)c32)cc1 (stereo unspecified) 65.4%
CCOC(=O)c1nnc(-c2ccccc2)nc1Sc1c(Cl)cccc1Cl 95.8%
c1ccc(CCNc2ccnc3cc4ccccc4cc23)cc1 55.6%
COc1ccc(/C=C/c2onc(C)c2S(=O)(=O)N2CCC(C(=O)N3CCC(C)CC3)CC2)cc1 76.1%
Cc1ccc(C(=O)N/C(=C\c2ccc(-c3ccccc3[N+](=O)[O-])o2)C(=O)NCCCN2CCOCC2)cc1 91.1%
CCN(CC)CCC(=O)Nc1cccc2c1C(=O)c1ccccc1C2=O 56.4%
COc1ccc(N(CC(=O)NC(C)c2ccccc2)S(=O)(=O)c2ccc(C)cc2)cc1 (stereo unspecified) 86.7%
OCC1(CCc2ccccc2)CCN(C/C=C/c2ccccc2)CC1 56.6%
CC(=O)Nc1ccc(SC[C@H](CC(C)C)N2CCN(CCc3ccccc3)CCC2=O)cc1 66%
COc1cccc(Sc2nc(-c3ccccc3)ncc2S(C)(=O)=O)c1 64.9%
Cc1c(NC(=O)C(Sc2ccccc2)c2ccccc2)cccc1[N+](=O)[O-] (stereo unspecified) 59.3%
COc1ccc([C@H]2[C@H](C(=O)OC(C)(C)C)N3N=Cc4ccccc4C3C23C(=O)c2ccccc2C3=O)cc1OC (stereo partly specified) 63.4%

Looked up by structure from the list above (5):
inhibition, active:
OCC1(CCc2ccccc2)CCN(C/C=C/c2ccccc2)CC1 56.6%
CCOC(=O)c1nnc(-c2ccccc2)nc1Sc1c(Cl)cccc1Cl 95.8%
COc1ccc(/C=C/c2onc(C)c2S(=O)(=O)N2CCC(C(=O)N3CCC(C)CC3)CC2)cc1 76.1%
COc1ccc(N(CC(=O)NC(C)c2ccccc2)S(=O)(=O)c2ccc(C)cc2)cc1 (stereo unspecified) 86.7%
Cc1c(C=O)c2cc(OCc3ccccc3)ccc2n1C 69.2%
